Some of the results follow. Shown are side measurements of this screen, not its main read-out; they come without a call. Compounds called inactive in the main read-out are mostly missing here. The note in brackets gives the kind of curve behind each potency; many fits are weak.

The assay can be described thus: Cell signaling CRE-BLA (Fsk stim). The conditions noted are these: CHO CRE-bla reporter (cAMP response element driving beta-lactamase), forskolin EC10, beta-lactamase ratio; measured here: 460 nm blue channel. Put shortly: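 The 460nm/530nm emission ratio after CCF4 loading defined %Activity, from which AC50 values were obtained. CRE-bla CHO cells received compound dilution series together with an EC10 level of NKH 477 for 3 hours at 37 degrees Celsius.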
For orientation: AC50 means the concentration at which the activity in the assay is half-maximal. In the case of `c1nc(NCCN2CCOCC2)c2c3c(sc2n1)CCCCC3`, the AC50 was 12.6 µM [rising, single point].
Turning to `c1ccc2c(c1)OCC(c1nn3cnnc3s1)O2` (centres undefined), the AC50 was 5.01 µM [rising, single point].
The figure for `COC(=O)C1=C(N)Oc2cc(C)n(Cc3cccnc3)c(=O)c2C1c1ccc(OC)c(OC)c1` (centres undefined) is 25.1 µM [rising, single point]; for `COc1cccc(-c2nc(NCc3cccnc3)c3ccccc3n2)c1` it is 10 µM [rising, partial curve]; for `Cc1cc(C)n2cc(CSc3nnnn3-c3ccccc3)nc2n1` it is 25.1 µM [rising, single point].
The figure for `COc1ccc(S(=O)(=O)Nc2ccc(Cl)cn2)c(C)c1C` is 0.0794 µM [falling, partial curve, poor fit].
In the case of `Cc1cc(C)c(C)c(S(=O)(=O)NCc2ccco2)c1C`, the AC50 is 0.0501 µM [falling, full curve].
As to `CCOC(=O)N1CCN(C(=O)c2ccc(-n3c(=S)[nH]c4ccccc4c3=O)cc2)CC1`, the AC50 is 0.631 µM [falling, partial curve].
Consider `COc1ccccc1-c1cc(C(F)(F)F)nc(S(=O)(=O)CCCC(=O)N2CCOCC2)n1`, for which the AC50 was 10 µM [falling, partial curve].
On to `CN(C)c1ncc2nc(-c3ccccc3)c(=O)n(-c3ccccc3)c2n1`, for which the AC50 is 12.6 µM [rising, partial curve].
As for `COc1cc(Br)cc2cc(C(=O)N3CCCCC3C)c(=O)oc12` (centres undefined), the AC50 is 0.00316 µM [falling, full curve, poor fit].
Consider `COc1ccc(-n2c(=O)c(-c3cccc(Cl)c3)nc3cncnc32)cc1`, for which the AC50 was 5.01 µM [rising, partial curve].
Take `CC(CCl)OC(C)CCl` (centres undefined): the AC50 is 1 µM [falling, full curve, poor fit].
For the compound `COc1ccccc1-c1nn2c(C3COc4ccccc4O3)nnc2s1` (centres undefined), the concentration at half-maximal activity (AC50) is 25.1 µM [rising, single point].
As for `CCOC(=O)c1[nH]c(C)c(C(=O)N2CCN(C(=O)c3ccco3)CC2)c1C`, the AC50 is 10 µM [rising, partial curve, poor fit].
Regarding `COc1cccc(-c2cn3nc(C)c(C)nc3n2)c1`, the AC50 was 15.8 µM [rising, partial curve].
Turning to `COc1cccc(-c2cc(C(=O)Nc3cccc(O)c3)no2)c1`, the AC50 was 0.0316 µM [rising, full curve].
As to `COc1cc(OC)cc(-c2nc(-c3ccccc3)no2)c1`, the AC50 is 5.01 µM [falling, single point].
Take `CN1CCN(c2nc3c(c(=O)n(C)c(=O)n3C)n2CCSc2nc3ccccc3s2)CC1`: the AC50 was 6.31 µM [rising, partial curve].
